The values below come from patent US20210238312.

The target in series [1] is T1, CTCF (UniProt Q61164).
T1 sequence (looked up, limits assumed): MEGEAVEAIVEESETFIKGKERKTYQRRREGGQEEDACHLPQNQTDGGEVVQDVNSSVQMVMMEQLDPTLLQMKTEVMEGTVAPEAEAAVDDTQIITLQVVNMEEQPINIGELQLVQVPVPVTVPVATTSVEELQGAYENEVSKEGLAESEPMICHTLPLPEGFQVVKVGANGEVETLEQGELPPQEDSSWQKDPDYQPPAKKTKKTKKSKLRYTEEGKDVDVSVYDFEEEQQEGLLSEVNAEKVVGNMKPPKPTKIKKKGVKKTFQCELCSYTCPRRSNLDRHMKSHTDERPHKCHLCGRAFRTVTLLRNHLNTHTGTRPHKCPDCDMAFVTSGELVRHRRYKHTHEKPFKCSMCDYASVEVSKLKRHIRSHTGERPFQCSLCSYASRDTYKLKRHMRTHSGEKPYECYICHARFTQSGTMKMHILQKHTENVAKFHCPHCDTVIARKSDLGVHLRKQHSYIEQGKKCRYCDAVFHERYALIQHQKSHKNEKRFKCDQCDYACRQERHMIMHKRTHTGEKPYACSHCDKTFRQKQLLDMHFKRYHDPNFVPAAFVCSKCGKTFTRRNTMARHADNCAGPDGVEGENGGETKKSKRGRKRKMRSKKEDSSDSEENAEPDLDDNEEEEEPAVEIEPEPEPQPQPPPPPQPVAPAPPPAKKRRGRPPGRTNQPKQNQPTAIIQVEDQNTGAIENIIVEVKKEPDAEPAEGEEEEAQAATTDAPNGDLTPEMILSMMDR
As to the kind of experiment: competition with a labelled probe. To be noted: 20- or 200-fold molar excess of unlabeled scrambled oligo could not compete with WT oligo for CTCF binding; protein in an extract; variant of WT VH81X-CBE EMSA oligo. In general terms: A gel shift assay detects complexes by their altered migration in electrophoresis.

For series [2], the target named is T1, CTCF. The series is described as follows: EMSA. The note with it: anti-CTCF antibody gives super-shift; LightShift chemiluminescent EMSA kit; protein in an extract.

Where cells or extracts were used, other partners may take part. For some assays here: Negatives hold for the conditions tested. Tags and fusion partners may be left off the protein sequences shown.

For the sequence “AAACCTCCTGCAGAGCATCCGAGGCGAGCGGCCGCAGAGGAGAGCACACAGAGTTGTGAA (double strand) [scrambled VH81X-CBE EMSA oligo]”, in series [1], the binding result is given as “no binding”.
Turning to “AAACCTCCTGCAGAGCATCCAGGACCAGCAGGGGGCGCGGAGAGCACACAGAGTTGTGAA (double strand) [WT VH81X-CBE EMSA oligo]”, the binding result in series [2] was “binds”.
